# According to the supplement of paper PMC8728848:
# The list shows a part of the results.
# B1: LlpA (Burkholderia cenocepacia) (protein)
# chain: MGSSHHHHHHSSGLVPRGSHKILGSNETLSAGNVVYSDNGQYHLAMQTDGNLVVYGPTGAVWQSQTSGSGGNRAVMQGDGNLVIYRADNTAAWSSKTAHPGAFLAVQDDGNVVIYWPRPAWASNTSDPATQQSAESKYLASGSTMSAGQTVTVAQYMLVFQADGNLVLYKNGGNPIWSTGTQGKGATYAVMQSDGNFVIYAGSTALWSTKTNGANGAQLVLQSDGNLVIYAPTAAWSTKFGLVTAPTSTSTSNNGPGSGICVGVCPPHPLNGNPFSPVGVGTTGLGFPTPGYPGAAF
# Assays:
# Test in all cases: glycan array binding signal (z-score within array); higher = stronger binding
# Conditions in all cases: glycan notation: IUPAC condensed, linker removed
# [1] = molecular target: Gal(b1-4)GlcNAc(b1-3)Gal(b1-4)GlcNAc(b1-3)Gal(b1-4)GlcNAc
# Outline: (§1)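 Glycan array data came from 3228 arrays in the Consortium for Functional Glycomics database, and only arrays with an available protein sequence were kept. Glycan names were put into IUPAC-condensed notation, and columns mapping to the same glycan were averaged. The binding signal is a within-array Z-score, averaged across arrays of one protein sequence run at different concentrations or buffers and across linkers. A negative Z-score can be read as non-binding.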
# [2] = molecular target: Gal(b1-4)GlcNAc(b1-3)Gal(b1-4)GlcNAc(b1-3)Gal(b1-4)GlcNAc(b1-2)Man(a1-3)[Gal(b1-4)GlcNAc(b1-3)Gal(b1-4)GlcNAc(b1-3)Gal(b1-4)GlcNAc(b1-2)Man(a1-6)]Man(b1-4)GlcNAc(b1-4)GlcNAc
# Outline: as §1
# [3] = molecular target: Gal(b1-4)GlcNAc(b1-3)Gal(b1-4)GlcNAc(b1-3)Gal(b1-4)GlcNAc(b1-2)Man(a1-3)[Gal(b1-4)GlcNAc(b1-3)Gal(b1-4)GlcNAc(b1-3)Gal(b1-4)GlcNAc(b1-2)Man(a1-6)]Man(b1-4)GlcNAc(b1-4)[Fuc(a1-6)]GlcNAc
# Outline: as §1
# [4] = molecular target: Gal(b1-4)GlcNAc(b1-3)Gal(b1-4)GlcNAc(b1-3)Gal(b1-4)GlcNAc(b1-2)[Gal(b1-4)GlcNAc(b1-3)Gal(b1-4)GlcNAc(b1-3)Gal(b1-4)GlcNAc(b1-6)]Man(a1-6)[Gal(b1-4)GlcNAc(b1-3)Gal(b1-4)GlcNAc(b1-3)Gal(b1-4)GlcNAc(b1-2)Man(a1-3)]Man(b1-4)GlcNAc(b1-4)[Fuc(a1-6)]GlcNAc
# Outline: as §1
# [5] = molecular target: Gal(b1-4)GlcNAc(b1-3)Gal(b1-4)GlcNAc(b1-3)Gal(b1-4)GlcNAc(b1-3)Gal(b1-4)GlcNAc(b1-2)Man(a1-3)[Gal(b1-4)GlcNAc(b1-3)Gal(b1-4)GlcNAc(b1-3)Gal(b1-4)GlcNAc(b1-3)Gal(b1-4)GlcNAc(b1-2)Man(a1-6)]Man(b1-4)GlcNAc(b1-4)GlcNAc
# Outline: as §1
# [6] = molecular target: Gal(b1-4)GlcNAc(b1-3)Gal(b1-4)GlcNAc(b1-3)Gal(b1-4)GlcNAc(b1-3)Gal(b1-4)GlcNAc(b1-2)Man(a1-3)[Gal(b1-4)GlcNAc(b1-3)Gal(b1-4)GlcNAc(b1-3)Gal(b1-4)GlcNAc(b1-3)Gal(b1-4)GlcNAc(b1-2)Man(a1-6)]Man(b1-4)GlcNAc(b1-4)[Fuc(a1-6)]GlcNAc
# Outline: as §1
# [7] = molecular target: Gal(b1-4)GlcNAc(b1-3)Gal(b1-4)GlcNAc(b1-3)Gal(b1-4)GlcNAc(b1-3)Gal(b1-4)GlcNAc(b1-2)[Gal(b1-4)GlcNAc(b1-3)Gal(b1-4)GlcNAc(b1-3)Gal(b1-4)GlcNAc(b1-3)Gal(b1-4)GlcNAc(b1-6)]Man(a1-6)[Gal(b1-4)GlcNAc(b1-3)Gal(b1-4)GlcNAc(b1-3)Gal(b1-4)GlcNAc(b1-3)Gal(b1-4)GlcNAc(b1-2)Man(a1-3)]Man(b1-4)GlcNAc(b1-4)[Fuc(a1-6)]GlcNAc
# Outline: as §1
# [8] = molecular target: Gal(b1-4)GlcNAc(b1-3)Gal(b1-4)GlcNAc(b1-3)Gal(b1-4)GlcNAc(b1-3)Gal(b1-4)GlcNAc(b1-3)Gal(b1-4)GlcNAc(b1-2)Man(a1-3)[Gal(b1-4)GlcNAc(b1-3)Gal(b1-4)GlcNAc(b1-3)Gal(b1-4)GlcNAc(b1-3)Gal(b1-4)GlcNAc(b1-3)Gal(b1-4)GlcNAc(b1-2)Man(a1-6)]Man(b1-4)GlcNAc(b1-4)GlcNAc
# Outline: as §1
# [9] = molecular target: Gal(b1-4)GlcNAc(b1-3)Gal(b1-4)GlcNAc(b1-3)Gal(b1-4)GlcNAc(b1-3)Gal(b1-4)GlcNAc(b1-3)Gal(b1-4)GlcNAc(b1-2)Man(a1-3)[Gal(b1-4)GlcNAc(b1-3)Gal(b1-4)GlcNAc(b1-3)Gal(b1-4)GlcNAc(b1-3)Gal(b1-4)GlcNAc(b1-3)Gal(b1-4)GlcNAc(b1-2)Man(a1-6)]Man(b1-4)GlcNAc(b1-4)[Fuc(a1-6)]GlcNAc
# Outline: as §1
# [10] = molecular target: Gal(b1-4)GlcNAc(b1-3)Gal(b1-4)GlcNAc(b1-3)Gal(b1-4)GlcNAc(b1-3)Gal(b1-4)GlcNAc(b1-3)Gal(b1-4)GlcNAc(b1-2)[Gal(b1-4)GlcNAc(b1-3)Gal(b1-4)GlcNAc(b1-3)Gal(b1-4)GlcNAc(b1-3)Gal(b1-4)GlcNAc(b1-3)Gal(b1-4)GlcNAc(b1-6)]Man(a1-6)[Gal(b1-4)GlcNAc(b1-3)Gal(b1-4)GlcNAc(b1-3)Gal(b1-4)GlcNAc(b1-3)Gal(b1-4)GlcNAc(b1-3)Gal(b1-4)GlcNAc(b1-2)Man(a1-3)]Man(b1-4)GlcNAc(b1-4)[Fuc(a1-6)]GlcNAc
# Outline: as §1
# [11] = molecular target: Gal(b1-4)GlcNAc(b1-3)Gal(b1-4)GlcNAc(b1-3)Gal(b1-4)GlcNAc(b1-3)Gal(b1-4)GlcNAc(b1-3)Gal(b1-4)GlcNAc(b1-3)Gal(b1-4)GlcNAc(b1-2)Man(a1-3)[Gal(b1-4)GlcNAc(b1-3)Gal(b1-4)GlcNAc(b1-3)Gal(b1-4)GlcNAc(b1-3)Gal(b1-4)GlcNAc(b1-3)Gal(b1-4)GlcNAc(b1-3)Gal(b1-4)GlcNAc(b1-2)Man(a1-6)]Man(b1-4)GlcNAc(b1-4)GlcNAc
# Outline: as §1
# [12] = molecular target: Gal(b1-4)GlcNAc(b1-3)Gal(b1-4)GlcNAc(b1-3)GalNAc
# Outline: as §1
# [13] = molecular target: Gal(b1-4)GlcNAc(b1-3)Gal(b1-4)GlcNAc(b1-3)[Gal(b1-4)GlcNAc(b1-3)Gal(b1-4)GlcNAc(b1-6)]GalNAc
# Outline: as §1
# [14] = molecular target: Gal(b1-4)GlcNAc(b1-3)Gal(b1-4)GlcNAc(b1-6)[Gal(b1-3)]GalNAc
# Outline: as §1
# [15] = molecular target: Gal(b1-4)GlcNAc(b1-3)Gal(b1-4)[Fuc(a1-3)]GlcNAc(b1-3)Gal(b1-4)[Fuc(a1-3)]GlcNAc
# Outline: as §1
# [16] = molecular target: Gal(b1-4)GlcNAc(b1-3)GalNAc
# Outline: as §1
# [17] = molecular target: Gal(b1-4)GlcNAc(b1-3)[Fuc(a1-3)GlcNAc(b1-6)]Gal(b1-4)Glc
# Outline: as §1
# [18] = molecular target: Gal(b1-4)GlcNAc(b1-3)[Gal(b1-4)GlcNAc(b1-6)]Gal(b1-4)GlcNAc
# Outline: as §1
# [19] = molecular target: Gal(b1-4)GlcNAc(b1-3)[GlcNAc(b1-6)]Gal(b1-4)GlcNAc
# Outline: as §1
binder,measurement,setting,value
B1,glycan array binding signal (z-score),[1],0.591
same,glycan array binding signal (z-score),[2],0.176
same,glycan array binding signal (z-score),[3],1.62
same,glycan array binding signal (z-score),[4],1.03
same,glycan array binding signal (z-score),[5],-0.435
same,glycan array binding signal (z-score),[6],0.379
same,glycan array binding signal (z-score),[7],0.433
same,glycan array binding signal (z-score),[8],0.55
same,glycan array binding signal (z-score),[9],-0.882
same,glycan array binding signal (z-score),[10],1.58
same,glycan array binding signal (z-score),[11],0.115
same,glycan array binding signal (z-score),[12],0.526
same,glycan array binding signal (z-score),[13],0.857
same,glycan array binding signal (z-score),[14],0.061
same,glycan array binding signal (z-score),[15],-0.88
same,glycan array binding signal (z-score),[16],0.232
same,glycan array binding signal (z-score),[17],0.186
same,glycan array binding signal (z-score),[18],-0.705
same,glycan array binding signal (z-score),[19],-0.096

# Given tab-delimited: part of the list above.
binder	measurement	setting	value
B1	glycan array binding signal (z-score)	[10]	1.58
same	glycan array binding signal (z-score)	[11]	0.115
